These results are taken from PubChem BioAssay AID2685 (National Center for Advancing Translational Sciences (NCATS), 2010).

This assay is described as follows: qHTS Assay for Lipid Storage Modulators in Drosophila S3 Cells.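 As to cell number change: cells counted by Cell Tracker Red CMTPX staining in the red channel.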 The conditions noted are these: BODIPY lipid droplet fluorescence, 18-24 h; for cell number change: measured here: cell count max response, cells fed with added oleic acid. The method, boiled down: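 Drosophila S3 cells got compounds at several concentrations plus oleic acid (400 uM solution). Laser-scanning cytometry with 488 nm excitation read lipid droplets at 500-530 nm and cells at 575-640 nm. Percent activity was relative to 20 uM Triacsin C.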

Setting [1] is: measured here: lipid fluorescence (Fed channel) AC50, cells fed with added oleic acid.
Where [2] appears, read: measured here: cell number channel AC50, cells fed with added oleic acid.

The list shows a part of the results. Shown are side measurements of this screen, not its main read-out; they come without a call. Compounds called inactive in the main read-out are mostly missing here. Potencies come from curve fits of mixed quality, noted in brackets.

The term AC50 denotes the concentration at which the activity in the assay is half-maximal. For the molecule `CC(C)(C)C(=O)N=C1SC2CS(=O)(=O)CC2N1c1ccc2c(c1)OCO2` (stereo unspecified), the concentration at half-maximal activity (AC50) under setting [1] was 4.11 µM [falling, partial curve].

Take `COc1ccc(N(CC(=O)Nc2ccccc2C(=O)N2CCOCC2)S(=O)(=O)c2ccc(F)cc2)cc1`: the AC50 under setting [1] was 16.4 µM [falling, single point]. As for `COc1cc(CN2CCN(Cc3ccc(C(F)(F)F)cc3)CC2)cc(OC)c1OC`, the cell number change is -2.55%.

In the case of `O=Nc1c2ccc[nH]c-2c2ccc([N+](=O)[O-])cc12`, the cell number change came to 4.81%. On to `CCn1c2ccccc2c2nnc(SCC(=O)NC3CCS(=O)(=O)C3)nc21` (stereo unspecified), for which the concentration at half-maximal activity (AC50) under setting [1] was 2.31 µM [rising, partial curve]. For `O=C1NC(=O)C2(CCC(C(=O)O)C2)N1` (stereo unspecified), the cell number change worked out at 31.1%. Moreover, the concentration at half-maximal activity (AC50) under setting [2] was 29.1 µM [rising, single point]. For the same molecule, the AC50 under setting [1] was 29.1 µM [rising, single point]. As for `Cc1ccc(S(=O)(=O)NCC(C)n2nc(C)nc2C)cc1` (stereo unspecified), the cell number change was found to be 2.99%. For the same molecule, the AC50 under setting [1] was 2.59 µM [rising, full curve]. As for `CC(C)c1ccc(N2C(=O)C3C4C=CC(CC4)C3C2=O)cc1` (stereo unspecified), the cell number change was 33.4%. The same measure, in the same setting: under `O=C(/C=C/c1ccccc1[N+](=O)[O-])NC1CCCC1` stands -46%; under `COc1cccc(CC(=O)NC2CCCN(Cc3ccccc3F)C2)c1` (stereo unspecified), 5.69%. For the molecule `Cn1cc(/C=C/C(=O)c2ccccc2)c2ccccc21`, the half-maximal activity concentration (AC50) under setting [1] was 2.59 µM [rising, partial curve]. In the case of `O=C(c1cc(-c2ccco2)on1)N1CCN(C(c2ccccc2)c2ccccc2)CC1`, the cell number change is -6.8%. Besides, the AC50 under setting [1] is 14.6 µM [falling, single point]. Turning to `CC(=O)c1ccc(N2CCN(C(=O)c3cn(Cc4ccccc4)nc3-c3cccnc3)CC2)c(F)c1`, the cell number change amounted to 14.5%. As to `COc1cccc(CN(C)C(=O)CCN(c2ccccc2)S(=O)(=O)c2ccc(C)cc2)c1OC`, the cell number change was -20.8%. Also, the AC50 under setting [1] is 20.6 µM [falling, single point].

`Cn1c2ccccc2n2c(=O)c(=O)n(CC(=O)c3ccc(F)cc3)nc12`: the cell number change was -0.227%. Moreover, the AC50 under setting [1] was 2.91 µM [rising, partial curve, poor fit]. Consider `OCCNc1cc(-n2nc(-c3ccccc3)cc2-c2ccccc2)ncn1`, for which the cell number change was -20.7%. Besides, the AC50 under setting [1] is 6.51 µM [falling, single point]. As to `COc1ccc(NC(=O)CN(C)C(=O)CCC2CCCC2)cc1`, the cell number change was found to be 1.62%. The half-maximal activity concentration (AC50) under setting [1] was 29.1 µM [rising, single point]. With `CC(C)CCOC(=O)C1C(c2ccccc2)C(C(=O)O)C1c1ccccc1` (stereo unspecified), the cell number change is 9.37%.

`O=C(CSc1nc2ccccc2n1CC(=O)N1CCOCC1)N1CCCC1`: the cell number change is -21.4%. Besides, the AC50 under setting [1] is 23.1 µM [falling, single point]. Turning to `CC(C)(C)N1C(=O)Cc2c1nc(N)c1c(N)nc(N3CCCCC3CO)c(C#N)c21` (stereo unspecified), the cell number change was determined as 17.5%. On to `Cc1nc2ccccn2c1C(=O)CSc1cccc(Cl)c1`, for which the cell number change is -29.4%. Same read-out and setting: to `CN(c1ccccc1)S(=O)(=O)c1cccc(NC(=O)COC(=O)C2CCCCC2)c1` belongs 17.4%.

As to `CC(C)C(NC(=O)c1ccc(C(C)(C)C)cc1)C(=O)NCc1ccccn1` (stereo unspecified), the cell number change was -20.2%. Under setting [2], the half-maximal activity concentration (AC50) is 0.146 µM [falling, full curve, poor fit]. For the same molecule, under setting [1], the concentration at half-maximal activity (AC50) is 0.116 µM [falling, full curve, poor fit]. For the molecule `CCOC(=O)c1c(C)[nH]c(C)c1C(=O)COC(=O)c1ccc([N+](=O)[O-])s1`, the cell number change is -35.2%. The AC50 under setting [2] is 13 µM [falling, single point]. The concentration at half-maximal activity (AC50) under setting [1] was 11.6 µM [falling, partial curve]. Turning to `CCc1ccc(C(=O)NNC(=O)c2c(CC)noc2C)cc1`, under setting [1], the AC50 was 0.517 µM [rising, single point].

Consider `Cc1ccc(CNC(=O)CN2C(=O)NC(C)(c3ccc(Cl)cc3)C2=O)cc1` (stereo unspecified), for which the AC50 under setting [2] is 6.51 µM [rising, single point]. `Oc1ccc(NCc2ccccc2OCc2ccccc2F)cc1`: the cell number change is -24.7%. Moreover, under setting [1], the AC50 is 29.1 µM [rising, single point]. For the molecule `Cc1ccc(CN(C(=O)COc2ccc(Br)cc2)C2CCS(=O)(=O)C2)o1` (stereo unspecified), the cell number change came to 14.1%. Consider `CC(/C=N/NC(=O)c1cc(-c2ccc(C)s2)[nH]n1)=C\c1ccccc1`, for which the cell number change is -40.2%. Also, the AC50 under setting [2] was 29.1 µM [falling, single point]. Besides, under setting [1], the AC50 was 29.1 µM [falling, single point].

As for `Cc1ccc(OCCCCn2cnc3ccccc32)c(C)c1`, the cell number change was -69.3%. Moreover, under setting [2], the AC50 was 18.4 µM [falling, partial curve]. Under setting [1], the AC50 was 18.4 µM [falling, partial curve]. Turning to `CCOc1ccc(S(=O)(=O)/N=C(/c2ccccc2)N(C)C)cc1`, the cell number change was found to be 19.6%. Besides, the half-maximal activity concentration (AC50) under setting [1] was 14.6 µM [rising, single point].

Turning to `CCOC(=O)c1sc(NC(C)=O)c(C(=O)OCC)c1C`, the cell number change is 10.2%. For `COC(=O)c1ccccc1NC(=O)c1ccc(-c2ccc(Br)cc2)o1`, the concentration at half-maximal activity (AC50) under setting [2] is 2.06 µM [rising, partial curve] and the half-maximal activity concentration (AC50) under setting [1] is 3.26 µM [rising, partial curve]. Consider `CCN(Cc1ccccc1)S(=O)(=O)c1cc(C(=O)NC2CCCCCC2)ccc1OC`, for which the cell number change amounted to 52.1%. Moreover, the AC50 under setting [2] is 23.1 µM [rising, single point].

As to `O=C(CSc1ncn[nH]1)Nc1ccc(Cl)c(S(=O)(=O)N2CCOCC2)c1`, the cell number change was -1.31%. Moreover, under setting [1], the concentration at half-maximal activity (AC50) was 2.31 µM [rising, single point].

For the molecule `Cc1cccc(N(CC(=O)NCc2ccccc2)C(=O)Cn2nnc(-c3ccc(C)o3)n2)c1`, the cell number change is -0.387%. As for `Cc1ccc(C(=O)Nc2cccnc2N2CCN(C)CC2)cc1`, the cell number change is -45.6%. Besides, under setting [2], the concentration at half-maximal activity (AC50) is 16.4 µM [falling, partial curve, poor fit]. Under setting [1], the concentration at half-maximal activity (AC50) was 0.92 µM [falling, full curve].

For `CC(NC(=O)CN1C(=O)NC2(CCCCCC2)C1=O)c1ccccc1Cl` (stereo unspecified), the cell number change is -25.1%. Also, under setting [1], the half-maximal activity concentration (AC50) is 1.64 µM [rising, partial curve]. For the molecule `O=C(NCCc1ccncc1)Nc1ccc(Cl)cc1`, the cell number change was 5.19%. Further, the AC50 under setting [1] was 10.3 µM [rising, partial curve]. In the case of `CCOC(=O)C1CCCCN1Cc1cccc(F)c1` (stereo unspecified), the cell number change was -96.5%. Moreover, under setting [2], the AC50 is 3.26 µM [falling, full curve]. On to `COCCCNC(=O)c1ccc(-n2nc(C(F)(F)F)cc2-c2cccs2)cc1`, for which the cell number change is 14.4%. Besides, under setting [1], the AC50 is 6.51 µM [rising, single point]. In the case of `CCOC(=O)c1[nH]c2ccc(OC)cc2c1NC(=O)CN1CCSCC1`, the cell number change is -5.35%. Also, the AC50 under setting [1] was 1.84 µM [rising, full curve].
